Laboratory results taken from patent US20030060416A1.
No constants are given. Whether binding was seen depends on the method and setting. Binding seen in cells or lysates may run through a third protein. Some entries that bind do so weakly or less than the wild type.

The chains behind the UniProt entries cited, without tags or fusion partners.
UniProt Q07817: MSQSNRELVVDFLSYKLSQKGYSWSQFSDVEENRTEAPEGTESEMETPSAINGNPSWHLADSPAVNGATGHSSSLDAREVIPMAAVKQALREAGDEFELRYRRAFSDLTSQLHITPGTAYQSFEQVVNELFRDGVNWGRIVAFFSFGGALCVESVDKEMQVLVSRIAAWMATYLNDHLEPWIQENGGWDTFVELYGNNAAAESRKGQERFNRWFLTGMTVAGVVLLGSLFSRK
UniProt Q13323: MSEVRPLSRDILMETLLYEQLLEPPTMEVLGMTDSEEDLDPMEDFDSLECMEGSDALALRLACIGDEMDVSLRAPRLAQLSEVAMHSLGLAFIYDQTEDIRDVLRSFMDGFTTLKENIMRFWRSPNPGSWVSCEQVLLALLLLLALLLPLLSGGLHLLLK

Key:
[1] = molecular target: T7-epitope tagged Bcl-xL (human) (UniProt Q07817); assay: co-immunoprecipitation from 293 cells (FIG. 5B legend)
[2] = molecular target: T7-epitope tagged Bcl-xL (human) (UniProt Q07817); assay: co-immunoprecipitation from 293 cells (anti-Flag IP, T7-antibody immunoblot)
[3] = molecular target: GST-Bcl-xL fusion protein (human) [GST: P08515]; assay: GST pull-down of 35S-labeled protein (FIG. 5A legend)
[4] = molecular target: GST-Bcl-2 fusion protein (human) [GST: P08515]; assay: as above
[5] = molecular target: GST-Bcl-xL fusion protein (human) [GST: P08515]; assay: GST pull-down of 35S-labeled protein, SDS-PAGE and autoradiography
[6] = molecular target: GST-Bcl-2 fusion protein (human) [GST: P08515]; assay: as above

binding [1] | binding [2] | binding [3] | binding [4] | binding [5] | binding [6] | Substance
binds | binds |  |  |  |  | Flag-epitope tagged Bik (from UniProt Q13323 1-160)
 |  | binds | binds | binds | binds | Bik (from UniProt Q13323 1-160)
